Assays:
[1] = system: T. b. rhodesiense strain STIB 900, trypomastigotes; test: In vitro activity against T. b. rhodesiense, serial drug dilution assay; conditions: Trypanosoma brucei, read-out: IC50 T. b. rhod.
Description: (§1) Drug stock solutions (10mg/ml) were in DMSO (100%). […] Selectivity index (SI) was calculated as IC50 L6 cells/IC50 parasite.

[2] = system: T. cruzi, strain Tulahuen C4, intracellular amastigotes; test: microbe, parasite or virus in culture; conditions: Trypanosoma cruzi, read-out: IC50 T. cruzi
Description: as §1

[3] = system: axenic amastigotes of L. donovani, strain MHOM-ET-67/L82; test: In vitro activity against L. donovani axenic amastigotes, serial drug dilution assay; format: cell-based; conditions: Leishmania donovani, means of two independent assays, read-out: IC50 L. don. axen.
Description: as §1

[4] = system: intracellular amastigotes of L. donovani strain MHOM-ET-67/L82; test: Activity against Leishmania donovani intracellular amastigotes in mouse peritoneal macrophages; conditions: Peritoneal macrophage, 96 h, read-out: IC50 L. don. intracell
Description: After 24 h 1.2 x 10^5 amastigote L. donovani in 100 μl were added. The amastigotes were taken from an axenic culture grown at pH 5.4. Four hours later, the medium containing free amastigote forms was removed and replaced by fresh medium. The next day the medium was replaced by medium with or without a serial drug dilution of seven 3-fold dilution steps covering a range from 30 to 0.04 μg/ml. Parasite growth in the presence of the drug was compared to control wells. After 96 h of incubation, the medium was removed and the slides fixed with methanol for 10 min followed by staining with a 10% Giemsa solution. Infected and non-infected macrophages were counted for the control cultures and those exposed to the serial drug dilutions. The infection rates were determined. The results were expressed as a percentage reduction in parasite burden compared to control wells, and the IC50 was calculated by linear regression analysis. The collection of mouse peritoneal macrophages was done at the Swiss Tropical and Public Health Institute (Basel) according to the rules and regulations for the protection of animal rights ("Tierschutzverordnung") of the Swiss "Bundesamt für Veterinärwesen".

[5] = system: P. falciparum strain K1; test: In vitro activity against P. falciparum, serial drug dilution assay; conditions: Plasmodium falciparum, K1, read-out: IC50 P. falc. K1
Description: as §1

[6] = Cytotoxicity on L6 cells; conditions: rat, IC50 Cytotox. L6, L6 cells, means of two independent assays
Description: as §1

[7] = Cytotoxicity on macrophages infected with L. donovani; format: cell-based; conditions: mouse, mouse peritoneal macrophages infected with L. donovani, read-out: IC50 Cytotox. mac.inf.

## O=C(CCCN1CCC2(CC1)C(=O)NCN2c1ccccc1)c1ccc(F)cc1 [Spiperone]
[1]
  IC50: 22.4 µM
[2]
  IC50: 64.6 µM
[3]
  IC50: > 228 µM
[4]
  IC50: > 75.9 µM
[5]
  IC50: 1.76 µM
[6]
  IC50: 54.4 µM
[7]
  IC50 at 96 h: > 75.9 µM
